# Data: article doi:10.1101/2023.05.16.540868 (bioRxiv, 2023)
# No constants are given. Whether binding was seen depends on the method and setting. Some entries that bind do so weakly or less than the wild type.
# B1: full-length SPD-5, dephosphorylated (incubated with kinase dead PLK-1), P91349 1-1198 (protein)
# chain: MEDNSVLNEDSNLEHVEGQPRRSMSQPVLNVEGDKRTSSTSATQQQVLSGAFSSADVRSIPIIQTWEENKALKTKITILRGELQMYQRRYSEAKEASQKRVKEVMDDYVDLKLGQENVQEKMEQYKLMEEDLLAMQSRIETSEDNFARQMKEFEAQKHAMEERIKELELSATDANNTTVGSFRGTLDDILKKNDPDFTLTSGYEERKINDLEAKLLSEIDKVAELEDHIQQLRQELDDQSARLADSENVRAQLEAATGQGILGAAGNAMVPNSTFMIGNGRESQTRDQLNYIDDLETKLADAKKENDKARQALVEYMNKCSKLEHEIRTMVKNSTFDSSSMLLGGQTSDELKIQIGKVNGELNVLRAENRELRIRCDQLTGGDGNLSISLGQSRLMAGIATNDVDSIGQGNETGGTSMRILPRESQLDDLEESKLPLMDTSSAVRNQQQFASMWEDFESVKDSLQNNHNDTLEGSFNSSMPPPGRDATQSFLSQKSFKNSPIVMQKPKSLHLHLKSHQSEGAGEQIQNNSFSTKTASPHVSQSHIPILHDMQQILDSSAMFLEGQHDVAVNVEQMQEKMSQIREALARLFERLKSSAALFEEILERMGSSDPNADKIKKMKLAFETSINDKLNVSAILEAAEKDLHNMSLNFSILEKSIVSQAAEASRRFTIAPDAEDVASSSLLNASYSPLFKFTSNSDIVEKLQNEVSELKNELEMARTRDMRSPLNGSSGRLSDVQINTNRMFEDLEVSEATLQKAKEENSTLKSQFAELEANLHQVNSKLGEVRCELNEALARVDGEQETRVKAENALEEARQLISSLKHEENELKKTITDMGMRLNEAKKSDEFLKSELSTALEEEKKSQNLADELSEELNGWRMRTKEAENKVEHASSEKSEMLERIVHLETEMEKLSTSEIAADYCSTKMTERKKEIELAKYREDFENAAIVGLERISKEISELTKKTLKAKIIPSNISSIQLVCDELCRRLSREREQQHEYAKVMRDVNEKIEKLQLEKDALEHELKMMSSNNENVPPVGTSVSGMPTKTSNQKCAQPHYTSPTRQLLHESTMAVDAIVQKLKKTHNMSGMGPELKETIGNVINESRVLRDFLHQKLILFKGIDMSNWKNETVDQLITDLGQLHQDNLMLEEQIKKYKKELKLTKSAIPTLGVEFQDRIKTEIGKIATDMGGAVKEIRKK
# Molecular target: T1, full-length SPD-5, dephosphorylated (incubated with kinase dead PLK-1) (C. elegans), P91349
# T1 chain: B1 chain
# Test: cross-linking
# Details: remark: other sources report otherwise
binder,measurement,value
B1,binding,binds
